PMC3162608
These are yes or no findings as the source states them, for the method shown. Binding seen in cells or lysates may run through a third protein. Some entries that bind do so weakly or less than the wild type.

Sequences of proteins named here, by UniProt entry; tags and fusion partners are left off.
UniProt P02340: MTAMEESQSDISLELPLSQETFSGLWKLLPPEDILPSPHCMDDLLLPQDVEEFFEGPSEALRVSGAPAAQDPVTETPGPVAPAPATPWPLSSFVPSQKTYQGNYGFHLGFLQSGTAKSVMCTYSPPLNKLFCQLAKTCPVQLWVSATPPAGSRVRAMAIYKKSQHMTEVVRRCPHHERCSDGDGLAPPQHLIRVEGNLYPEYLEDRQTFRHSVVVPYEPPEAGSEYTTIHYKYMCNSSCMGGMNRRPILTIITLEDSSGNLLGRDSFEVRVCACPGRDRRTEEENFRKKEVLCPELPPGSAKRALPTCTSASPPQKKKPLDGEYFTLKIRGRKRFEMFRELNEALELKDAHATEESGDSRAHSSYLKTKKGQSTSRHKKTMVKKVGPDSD
UniProt Q04207: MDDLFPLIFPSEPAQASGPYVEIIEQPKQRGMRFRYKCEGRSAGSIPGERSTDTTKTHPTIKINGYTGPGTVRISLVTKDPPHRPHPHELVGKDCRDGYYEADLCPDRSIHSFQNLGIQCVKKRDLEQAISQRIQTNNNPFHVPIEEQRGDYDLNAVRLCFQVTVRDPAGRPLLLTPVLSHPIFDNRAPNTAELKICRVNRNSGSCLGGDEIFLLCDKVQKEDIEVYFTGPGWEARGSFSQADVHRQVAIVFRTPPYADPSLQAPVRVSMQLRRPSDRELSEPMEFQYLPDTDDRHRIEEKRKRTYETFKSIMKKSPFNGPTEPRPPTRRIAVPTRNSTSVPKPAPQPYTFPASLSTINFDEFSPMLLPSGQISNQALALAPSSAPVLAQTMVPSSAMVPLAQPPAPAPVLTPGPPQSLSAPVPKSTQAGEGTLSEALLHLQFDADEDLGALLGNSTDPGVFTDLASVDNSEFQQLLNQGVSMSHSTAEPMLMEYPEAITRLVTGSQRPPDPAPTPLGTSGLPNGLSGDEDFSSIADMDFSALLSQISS

Biological target: p53 (mouse (endogenous in STHdhQ7/HdhQ7 and STHdhQ111/HdhQ111 cells)) (UniProt P02340)
Experiment: co-IP; Extracts of STHdhQ7/HdhQ7 and STHdhQ111/HdhQ111 cells in co-IP buffer (50 mM Tris pH 8.0, 150 mM NaCl, 1% NP40, protease inhibitors), pre-cleared, incubated overnight at 4°C with 1 µg anti-p53 antibody, captured on agarose-protein G beads, blotted with anti-p65 antibody

## p65 subunit of NFkB (RelA/NFkB) (from UniProt Q04207 1-549)
  binding: binds
